Experimental findings from article PMC2386467 are described below.

For this series, the system named is Rap2.4a (Arabidopsis thaliana). As to the kind of experiment: EMSA. Conditions: EMSA: 2.5 ug protein, 20 ng DNA, 0.5x TBE, 20 min room temperature, 6-7% native PAGE, anti-His blot; recombinant protein; protein details: His; letters put together from the description.

For at least one entry, the source does not settle the construct or the ends of the probe. At least one verdict was read from the data and is not stated in words by the source.

As to “CTCCGGTCACGCGATTCAAC (double strand) [wild-type CE3-like element (20 bp)]”, the binding result is given as “binds”.
